No constants are given. Whether binding was seen depends on the method and setting. In cells and extracts the contact can be indirect. Some results given as binding are weak or reduced against the parent protein; the word gives no strength.

Assay [1] has as its target T1, Nox2 (gp91-phox) (human (endogenous in B1647)) (UniProt P04839).
T1 sequence: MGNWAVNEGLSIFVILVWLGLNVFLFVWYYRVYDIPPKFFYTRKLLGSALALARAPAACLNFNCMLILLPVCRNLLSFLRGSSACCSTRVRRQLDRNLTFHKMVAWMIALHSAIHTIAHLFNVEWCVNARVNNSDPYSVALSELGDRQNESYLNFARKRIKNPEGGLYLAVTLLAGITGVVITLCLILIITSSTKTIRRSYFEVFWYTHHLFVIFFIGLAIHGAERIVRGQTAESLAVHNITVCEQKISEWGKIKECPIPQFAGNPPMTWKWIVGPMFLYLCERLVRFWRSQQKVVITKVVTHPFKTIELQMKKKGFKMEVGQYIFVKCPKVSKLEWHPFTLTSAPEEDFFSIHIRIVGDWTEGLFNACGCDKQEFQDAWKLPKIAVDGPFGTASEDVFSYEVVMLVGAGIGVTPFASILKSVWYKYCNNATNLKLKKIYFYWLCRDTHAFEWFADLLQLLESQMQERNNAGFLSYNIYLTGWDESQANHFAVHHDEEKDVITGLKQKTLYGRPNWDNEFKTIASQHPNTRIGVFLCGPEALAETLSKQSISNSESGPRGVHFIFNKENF
In words: co-IP; reverse ('vice-versa') immunoprecipitation: IP for Nox2 and WB for AQP8, B1647 cells; data not shown.

Assay [2] concerns the target T2, aquaporin-8 (human (endogenous in B1647)) (UniProt O94778).
T2 sequence: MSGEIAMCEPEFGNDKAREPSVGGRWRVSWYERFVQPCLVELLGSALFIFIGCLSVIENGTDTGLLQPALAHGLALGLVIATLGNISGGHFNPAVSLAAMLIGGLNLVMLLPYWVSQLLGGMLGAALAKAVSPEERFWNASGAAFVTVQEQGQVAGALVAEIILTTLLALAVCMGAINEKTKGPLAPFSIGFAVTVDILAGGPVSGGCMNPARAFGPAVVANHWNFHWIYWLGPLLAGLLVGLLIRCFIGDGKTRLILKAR
In words: co-IP; B1647 cells, control or treated with SFN for 24 h, lysed in RIPA buffer; lysates incubated overnight with anti-AQP8 antibody, protein G-agarose 1.5 h at 4°C, 5 washes with buffer pH 8; Western blot with anti-Nox2.

B1: aquaporin-8 (protein, UniProt O94778 1-261)
chain: T2 sequence
B1: the binding result in assay [1] is on record as “binds”.

B2: Nox2 (gp91-phox) (protein, UniProt P04839 1-570)
chain: T1 sequence
In the case of B2, the binding entry in assay [2] is “binds”.

For the origin of these results see publication PMC6276444.
